This passage reports binding results from paper PMC6770525.

These are yes or no findings as the source states them, for the method shown. In cells and extracts the contact can be indirect. Some binding calls cover weakened binding; strength is not graded here.

For this assay, the target named is T1, caveolin-1 (CAV1) (UniProt P33724).
T1 sequence: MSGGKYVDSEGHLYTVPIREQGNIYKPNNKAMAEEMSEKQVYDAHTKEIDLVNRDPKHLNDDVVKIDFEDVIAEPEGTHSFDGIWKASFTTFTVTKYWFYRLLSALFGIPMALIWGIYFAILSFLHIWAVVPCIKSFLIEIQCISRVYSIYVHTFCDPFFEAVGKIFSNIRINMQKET
Description: co-IP; immunoprecipitates from B16F10(cav-1) cell lysates (20 mM Tris pH 7.4, 150 mM NaCl, 1% NP40, protease and phosphatase inhibitors), protein A/G agarose, 4 °C, western blot; cells with or without CGP42112 (1 µM, 30 min).

B1: non-receptor protein tyrosine phosphatase 1B (PTP1B) (enzyme, UniProt P35821 1-432)
chain: MEMEKEFEEIDKAGNWAAIYQDIRHEASDFPCKVAKLPKNKNRNRYRDVSPFDHSRIKLHQEDNDYINASLIKMEEAQRSYILTQGPLPNTCGHFWEMVWEQKSRGVVMLNRIMEKGSLKCAQYWPQQEEKEMVFDDTGLKLTLISEDVKSYYTVRQLELENLTTKETREILHFHYTTWPDFGVPESPASFLNFLFKVRESGSLSLEHGPIVVHCSAGIGRSGTFCLADTCLLLMDKRKDPSSVDIKKVLLEMRRFRMGLIQTADQLRFSYLAVIEGAKFIMGDSSVQDQWKELSREDLDLPPEHVPPPPRPPKRTLEPHNGKCKELFSSHQWVSEETCGDEDSLAREEGRAQSSAMHSVSSMSPDTEVRRRMVGGGLQSAQASVPTEEELSSTEEEHKAHWPSHWKPFLVNVCMATLLATGAYLCYRVCFH
On to B1, for which the binding result is “binds”.
